According to publication PMC3393671:
Results are given in words; binding and its absence hold for the method and conditions named. Some results given as binding are weak or reduced against the parent protein; the word gives no strength. Tags and fused reporters may be left off the sequences shown.

Tests used:
[1] = target: T1, Irga6 (GST tag cleaved off) (mouse) (UniProt Q9QZ85); test: dynamic light scattering; GTP-dependent oligomerization of Irga6 with ROP5BIII; unpublished data
T1 sequence: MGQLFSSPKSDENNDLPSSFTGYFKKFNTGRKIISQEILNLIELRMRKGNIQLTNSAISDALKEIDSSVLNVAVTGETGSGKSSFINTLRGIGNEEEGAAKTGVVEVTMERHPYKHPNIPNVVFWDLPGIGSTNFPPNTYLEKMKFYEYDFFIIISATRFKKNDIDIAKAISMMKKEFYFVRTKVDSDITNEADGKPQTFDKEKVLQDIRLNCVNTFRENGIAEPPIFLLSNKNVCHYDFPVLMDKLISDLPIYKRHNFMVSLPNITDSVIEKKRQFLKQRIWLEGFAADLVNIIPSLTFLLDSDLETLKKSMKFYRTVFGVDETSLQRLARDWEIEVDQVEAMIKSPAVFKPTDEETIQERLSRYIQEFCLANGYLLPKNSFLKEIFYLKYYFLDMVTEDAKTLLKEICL

[2] = target: T1, Irga6 (GST tag cleaved off) (mouse); test: dynamic light scattering; GTP-dependent oligomerization of 20 µM purified Irga6 with 10 mM GTP, without or with 20 or 80 µM ROP5BI pseudokinase domain; GST as inert control; both purified

B1: Irga6 (GST tag cleaved off) (protein, UniProt Q9QZ85 1-411)
chain: T1 sequence
- binding [1]: binds
- binding [2]: binds
